Laboratory results: PubChem BioAssay AID1259254 (NCATS, 2017)

Assay: 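Finding genes that stop cells copying their DNA twice in one cycle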 (primary screen)
Cells: human HCT116 colorectal cancer cells
Reagent: single siRNA against human genes
Timing: 3 days
Measured: 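Nuclei stained with Hoechst and imaged; cell-cycle phase assigned by DNA content; G2 share scaled per plate, non-targeting siRNA 0%, GMNN siRNA 100%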
Direction: G2 robust z-score and G2 cells, % of GMNN control: higher = more G2 cells, more excess DNA replication; raw share of cells in G2: higher = larger share of cells with G2 DNA content
Rule for the call: 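Active siRNAs have a G2 robust z of 5 or more median absolute deviations over the median, which in these data means about 38% or higher of GMNN control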
The deposit covers about 59,000 reagents; below is an unselected part. About 1,550 of them (2.6%) count as active. 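G2 share is only a proxy for re-replication; each gene was hit by three separate siRNAs, and active genes were retested.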 Raw values are not corrected between plates. Entries without a mark were called inactive. The numbers tell different reagents against one gene apart. Not given: the amount of reagent.

| target gene | reagent | G2 robust z-score | G2 cells, % of GMNN control | raw share of cells in G2 (%) |
| --- | --- | --- | --- | --- |
| NUTM2G (NUT family member 2G) | 1 | -0.159 | 1.85 | 4.34 |
| NUTM2G (NUT family member 2G) | 2 | -0.865 | -3.12 | 2.23 |
| NUTM2G (NUT family member 2G) | 3 | 2.97 | 23.9 | 11.2 |
| LIG3 (DNA ligase 3) | 1 | 1.46 | 13.2 | 10.5 |
| LIG3 (DNA ligase 3) | 2 | 0.351 | 5.44 | 7.63 |
| LIG3 (DNA ligase 3) | 3 | -0.515 | -0.656 | 2.98 |
| HRCT1 (histidine rich carboxyl terminus 1) | 1 | -0.714 | -2.05 | 2.39 |
| HRCT1 (histidine rich carboxyl terminus 1) | 2 | -0.685 | -1.85 | 3.08 |
| HRCT1 (histidine rich carboxyl terminus 1) | 3 | -0.319 | 0.725 | 3.49 |
| OOSP1 (oocyte secreted protein 1) | 1 | 0.336 | 5.33 | 5.51 |
| OOSP1 (oocyte secreted protein 1) | 2 | -0.593 | -1.21 | 2.72 |
| OOSP1 (oocyte secreted protein 1) | 3 | -0.728 | -2.16 | 2.51 |
| PCDHB3 (protocadherin beta 3) | 1 | -1.46 | -7.3 | 1.82 |
| PCDHB3 (protocadherin beta 3) | 2 | 0.443 | 6.08 | 9.1 |
| PCDHB3 (protocadherin beta 3) | 3 | 1.66 | 14.7 | 10.5 |
| TMPRSS11GP (transmembrane serine protease 11G, pseudogene) | 1 | -1.03 | -4.28 | 2.01 |
| TMPRSS11GP (transmembrane serine protease 11G, pseudogene) | 2 | 1.77 | 15.4 | 8.82 |
| TMPRSS11GP (transmembrane serine protease 11G, pseudogene) | 3 | 2.68 | 21.9 | 9.51 |
| TMEM132A (transmembrane protein 132A) | 1 | -0.101 | 2.26 | 4.41 |
| TMEM132A (transmembrane protein 132A) | 2 | -0.332 | 0.629 | 4.54 |
| TMEM132A (transmembrane protein 132A) | 3 | -0.255 | 1.17 | 3.58 |
| MAGOH (mago homolog, exon junction complex subunit) | 1 | 1.57 | 14 | 8.41 |
| MAGOH (mago homolog, exon junction complex subunit) | 2 | 0.701 | 7.9 | 8.33 |
| MAGOH (mago homolog, exon junction complex subunit) | 3 | 0.143 | 3.97 | 5.79 |
| TTLL4 (tubulin tyrosine ligase like 4) | 1 | -0.226 | 1.38 | 3.67 |
| TTLL4 (tubulin tyrosine ligase like 4) | 2 | 4.25 | 32.9 | 18.1 |
| TTLL4 (tubulin tyrosine ligase like 4) | 3 | 1.31 | 12.2 | 9.82 |
| PM20D2 (peptidase M20 domain containing 2) | 1 | -0.111 | 2.18 | 5 |
| PM20D2 (peptidase M20 domain containing 2) | 2 | 0.327 | 5.27 | 4.77 |
| PM20D2 (peptidase M20 domain containing 2) | 3 | -0.62 | -1.39 | 2.07 |
| ASB6 (ankyrin repeat and SOCS box containing 6) | 1 | 0.789 | 8.52 | 7.39 |
| ASB6 (ankyrin repeat and SOCS box containing 6) | 2 | -0.561 | -0.978 | 2.79 |
| ASB6 (ankyrin repeat and SOCS box containing 6) | 3 | -0.682 | -1.83 | 1.92 |
| BRD3 (bromodomain containing 3) | 1 | -0.379 | 0.299 | 5.72 |
| BRD3 (bromodomain containing 3) | 2 | 0.535 | 6.73 | 6.69 |
| BRD3 (bromodomain containing 3) | 3 | 0.0569 | 3.37 | 5.52 |

The list goes on; the last 4 above are carried over.
| target gene | reagent | G2 robust z-score | G2 cells, % of GMNN control | raw share of cells in G2 (%) |
| --- | --- | --- | --- | --- |
| ASB6 (ankyrin repeat and SOCS box containing 6) | 3 | -0.682 | -1.83 | 1.92 |
| BRD3 (bromodomain containing 3) | 1 | -0.379 | 0.299 | 5.72 |
| BRD3 (bromodomain containing 3) | 2 | 0.535 | 6.73 | 6.69 |
| BRD3 (bromodomain containing 3) | 3 | 0.0569 | 3.37 | 5.52 |
| SLITRK3 (SLIT and NTRK like family member 3) | 1 | 0.69 | 7.83 | 6.54 |
| SLITRK3 (SLIT and NTRK like family member 3) | 2 | 1.85 | 16 | 9.5 |
| SLITRK3 (SLIT and NTRK like family member 3) | 3 | -0.388 | 0.24 | 6.47 |
| JAZF1 (JAZF zinc finger 1) | 1 | -0.727 | -2.15 | 2.6 |
| JAZF1 (JAZF zinc finger 1) | 2 | -0.35 | 0.503 | 3.2 |
| JAZF1 (JAZF zinc finger 1) | 3 | -0.19 | 1.63 | 4.89 |
| MYOM3 (myomesin 3) | 1 | 1.77 | 15.4 | 10.3 |
| MYOM3 (myomesin 3) | 2 | 0.395 | 5.75 | 8.34 |
| MYOM3 (myomesin 3) | 3 | -0.701 | -1.96 | 4.12 |
| COMMD3 (COMM domain containing 3) | 1 | 2.73 | 22.2 | 12.7 |
| COMMD3 (COMM domain containing 3) | 2 | 1.28 | 12 | 9.13 |
| COMMD3 (COMM domain containing 3) | 3 | 1.65 | 14.6 | 8.39 |
| CNEP1R1 (CTD nuclear envelope phosphatase 1 regulatory subunit 1) | 1 | -0.902 | -3.38 | 2.35 |
| CNEP1R1 (CTD nuclear envelope phosphatase 1 regulatory subunit 1) | 2 | -0.602 | -1.27 | 2.7 |
| CNEP1R1 (CTD nuclear envelope phosphatase 1 regulatory subunit 1) | 3 | 0.283 | 4.96 | 4.78 |
| UTRN (utrophin) | 1 | 5.82 (active) | 43.9 | 24.2 |
| UTRN (utrophin) | 2 | -1.35 | -6.51 | 2.33 |
| UTRN (utrophin) | 3 | -0.579 | -1.11 | 3.85 |
| MYBPC2 (myosin binding protein C2) | 1 | 0.161 | 4.1 | 4.55 |
| MYBPC2 (myosin binding protein C2) | 2 | -0.817 | -2.78 | 4.37 |
| MYBPC2 (myosin binding protein C2) | 3 | -0.458 | -0.254 | 5.26 |
| OPN3 (opsin 3) | 1 | -1.64 | -8.54 | 2.79 |
| OPN3 (opsin 3) | 2 | -0.647 | -1.59 | 3.96 |
| OPN3 (opsin 3) | 3 | 0.162 | 4.1 | 4.53 |
| OSGIN1 (oxidative stress induced growth inhibitor 1) | 1 | -0.651 | -1.61 | 3.46 |
| OSGIN1 (oxidative stress induced growth inhibitor 1) | 2 | -0.202 | 1.55 | 6.86 |
| OSGIN1 (oxidative stress induced growth inhibitor 1) | 3 | 0.778 | 8.44 | 6.99 |
| TSPAN11 (tetraspanin 11) | 1 | 0.498 | 6.47 | 6.12 |
| TSPAN11 (tetraspanin 11) | 2 | -0.669 | -1.74 | 2.76 |
| TSPAN11 (tetraspanin 11) | 3 | -0.747 | -2.29 | 2.34 |
| CASP8 (caspase 8) | 1 | 1.53 | 13.8 | 10.4 |
| CASP8 (caspase 8) | 2 | 2.52 | 20.7 | 12.2 |
| CASP8 (caspase 8) | 3 | -0.594 | -1.21 | 3.46 |
| THEMIS2 (thymocyte selection associated family member 2) | 1 | 0.383 | 5.66 | 7.89 |
| THEMIS2 (thymocyte selection associated family member 2) | 2 | -1.17 | -5.26 | 1.75 |
| THEMIS2 (thymocyte selection associated family member 2) | 3 | -0.637 | -1.52 | 2.85 |
| REEP6 (receptor accessory protein 6) | 1 | -0.939 | -3.64 | 3.4 |
| REEP6 (receptor accessory protein 6) | 2 | 0.619 | 7.32 | 7.25 |
| REEP6 (receptor accessory protein 6) | 3 | 0.168 | 4.15 | 7.6 |
| OR2Z1 (olfactory receptor family 2 subfamily Z member 1) | 1 | -0.311 | 0.782 | 3.93 |
| OR2Z1 (olfactory receptor family 2 subfamily Z member 1) | 2 | 3.8 | 29.7 | 14.5 |
| OR2Z1 (olfactory receptor family 2 subfamily Z member 1) | 3 | -0.433 | -0.0783 | 3.24 |
| OXCT2 (3-oxoacid CoA-transferase 2) | 1 | -0.537 | -0.809 | 5.31 |
| OXCT2 (3-oxoacid CoA-transferase 2) | 2 | 0.0297 | 3.18 | 5.47 |
| OXCT2 (3-oxoacid CoA-transferase 2) | 3 | -0.788 | -2.57 | 3.29 |
| FRMPD4 (FERM and PDZ domain containing 4) | 1 | 4.03 | 31.3 | 19.5 |
| FRMPD4 (FERM and PDZ domain containing 4) | 2 | -0.22 | 1.42 | 4.54 |
| FRMPD4 (FERM and PDZ domain containing 4) | 3 | -0.0861 | 2.36 | 4.26 |
| ART5 (ADP-ribosyltransferase 5) | 1 | -0.185 | 1.67 | 5.68 |
| ART5 (ADP-ribosyltransferase 5) | 2 | -0.964 | -3.82 | 3.9 |
| ART5 (ADP-ribosyltransferase 5) | 3 | 3.58 | 28.2 | 15.1 |
